Reference: article PMC12758332

By UniProt entry, the sequences of proteins in these tests, tags left out.
UniProt Q09472: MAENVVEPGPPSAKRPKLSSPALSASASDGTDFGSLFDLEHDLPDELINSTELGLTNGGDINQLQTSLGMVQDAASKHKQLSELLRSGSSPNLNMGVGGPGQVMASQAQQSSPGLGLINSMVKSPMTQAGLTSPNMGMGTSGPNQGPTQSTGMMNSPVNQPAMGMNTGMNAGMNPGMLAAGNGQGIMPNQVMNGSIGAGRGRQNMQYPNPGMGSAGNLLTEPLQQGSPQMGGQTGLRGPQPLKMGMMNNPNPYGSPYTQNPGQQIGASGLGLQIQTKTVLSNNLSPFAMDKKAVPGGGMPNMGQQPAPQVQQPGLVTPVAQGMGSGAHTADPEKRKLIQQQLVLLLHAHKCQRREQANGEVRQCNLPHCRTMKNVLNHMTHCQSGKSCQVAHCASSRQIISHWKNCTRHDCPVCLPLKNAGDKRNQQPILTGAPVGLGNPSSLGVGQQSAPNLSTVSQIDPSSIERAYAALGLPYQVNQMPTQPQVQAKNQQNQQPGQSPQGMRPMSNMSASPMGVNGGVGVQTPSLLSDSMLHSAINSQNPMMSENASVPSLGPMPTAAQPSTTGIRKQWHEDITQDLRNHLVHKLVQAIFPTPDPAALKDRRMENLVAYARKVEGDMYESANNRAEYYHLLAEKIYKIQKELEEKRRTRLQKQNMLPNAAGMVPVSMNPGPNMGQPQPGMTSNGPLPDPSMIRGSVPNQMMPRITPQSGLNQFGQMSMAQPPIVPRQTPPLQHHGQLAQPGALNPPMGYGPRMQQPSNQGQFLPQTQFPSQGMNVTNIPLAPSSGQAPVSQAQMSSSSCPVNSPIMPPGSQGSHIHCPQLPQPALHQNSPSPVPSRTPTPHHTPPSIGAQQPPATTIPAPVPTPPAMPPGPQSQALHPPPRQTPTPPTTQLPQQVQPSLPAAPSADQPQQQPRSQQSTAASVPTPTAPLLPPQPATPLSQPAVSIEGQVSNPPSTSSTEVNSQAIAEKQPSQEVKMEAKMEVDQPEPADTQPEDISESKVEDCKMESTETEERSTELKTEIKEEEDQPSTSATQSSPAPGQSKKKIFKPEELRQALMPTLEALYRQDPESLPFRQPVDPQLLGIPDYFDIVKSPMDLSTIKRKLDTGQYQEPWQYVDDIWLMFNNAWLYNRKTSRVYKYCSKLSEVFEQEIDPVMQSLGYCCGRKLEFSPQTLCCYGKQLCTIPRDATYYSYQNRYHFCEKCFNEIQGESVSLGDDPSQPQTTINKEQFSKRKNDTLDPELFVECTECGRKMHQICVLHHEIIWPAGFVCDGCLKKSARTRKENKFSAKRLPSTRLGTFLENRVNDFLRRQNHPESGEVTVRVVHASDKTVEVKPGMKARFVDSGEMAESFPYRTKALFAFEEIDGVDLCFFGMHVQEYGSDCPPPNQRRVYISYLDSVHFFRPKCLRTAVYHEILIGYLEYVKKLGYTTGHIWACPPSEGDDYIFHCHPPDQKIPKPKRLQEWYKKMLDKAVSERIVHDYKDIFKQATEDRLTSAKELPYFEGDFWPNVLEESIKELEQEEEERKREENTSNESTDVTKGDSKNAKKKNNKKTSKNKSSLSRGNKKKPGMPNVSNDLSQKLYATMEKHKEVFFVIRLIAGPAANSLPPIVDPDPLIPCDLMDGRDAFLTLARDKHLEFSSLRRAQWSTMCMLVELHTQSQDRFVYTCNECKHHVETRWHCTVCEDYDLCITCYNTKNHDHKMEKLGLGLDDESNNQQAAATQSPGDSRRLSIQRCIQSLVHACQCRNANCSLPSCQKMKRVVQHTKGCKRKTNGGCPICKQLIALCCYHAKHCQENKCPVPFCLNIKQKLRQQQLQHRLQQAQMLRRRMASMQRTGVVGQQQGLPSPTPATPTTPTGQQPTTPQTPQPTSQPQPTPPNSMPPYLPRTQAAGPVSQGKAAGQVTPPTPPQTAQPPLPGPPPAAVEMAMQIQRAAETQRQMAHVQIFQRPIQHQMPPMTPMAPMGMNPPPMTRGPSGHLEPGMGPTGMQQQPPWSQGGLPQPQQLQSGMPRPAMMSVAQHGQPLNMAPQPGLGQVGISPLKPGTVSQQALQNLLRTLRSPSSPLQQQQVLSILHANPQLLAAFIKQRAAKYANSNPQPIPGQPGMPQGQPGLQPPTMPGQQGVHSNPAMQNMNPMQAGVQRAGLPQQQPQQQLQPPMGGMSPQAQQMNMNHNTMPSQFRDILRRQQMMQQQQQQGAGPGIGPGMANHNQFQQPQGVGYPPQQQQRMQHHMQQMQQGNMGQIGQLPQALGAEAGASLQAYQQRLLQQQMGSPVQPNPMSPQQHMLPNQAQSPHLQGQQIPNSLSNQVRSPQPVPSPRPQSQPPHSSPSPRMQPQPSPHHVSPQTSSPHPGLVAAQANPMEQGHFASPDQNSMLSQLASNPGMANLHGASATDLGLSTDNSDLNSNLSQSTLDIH
UniProt O14929: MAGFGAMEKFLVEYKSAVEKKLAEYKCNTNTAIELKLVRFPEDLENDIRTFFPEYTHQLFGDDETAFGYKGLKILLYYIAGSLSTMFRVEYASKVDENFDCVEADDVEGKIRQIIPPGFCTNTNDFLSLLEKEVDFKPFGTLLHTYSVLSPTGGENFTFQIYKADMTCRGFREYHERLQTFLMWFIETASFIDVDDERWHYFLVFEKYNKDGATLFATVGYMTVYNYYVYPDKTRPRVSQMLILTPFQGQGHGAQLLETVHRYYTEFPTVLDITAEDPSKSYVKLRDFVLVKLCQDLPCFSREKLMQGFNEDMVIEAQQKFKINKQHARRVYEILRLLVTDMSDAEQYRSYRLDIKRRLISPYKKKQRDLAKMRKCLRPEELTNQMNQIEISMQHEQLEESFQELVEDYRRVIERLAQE
UniProt Q8WYB5: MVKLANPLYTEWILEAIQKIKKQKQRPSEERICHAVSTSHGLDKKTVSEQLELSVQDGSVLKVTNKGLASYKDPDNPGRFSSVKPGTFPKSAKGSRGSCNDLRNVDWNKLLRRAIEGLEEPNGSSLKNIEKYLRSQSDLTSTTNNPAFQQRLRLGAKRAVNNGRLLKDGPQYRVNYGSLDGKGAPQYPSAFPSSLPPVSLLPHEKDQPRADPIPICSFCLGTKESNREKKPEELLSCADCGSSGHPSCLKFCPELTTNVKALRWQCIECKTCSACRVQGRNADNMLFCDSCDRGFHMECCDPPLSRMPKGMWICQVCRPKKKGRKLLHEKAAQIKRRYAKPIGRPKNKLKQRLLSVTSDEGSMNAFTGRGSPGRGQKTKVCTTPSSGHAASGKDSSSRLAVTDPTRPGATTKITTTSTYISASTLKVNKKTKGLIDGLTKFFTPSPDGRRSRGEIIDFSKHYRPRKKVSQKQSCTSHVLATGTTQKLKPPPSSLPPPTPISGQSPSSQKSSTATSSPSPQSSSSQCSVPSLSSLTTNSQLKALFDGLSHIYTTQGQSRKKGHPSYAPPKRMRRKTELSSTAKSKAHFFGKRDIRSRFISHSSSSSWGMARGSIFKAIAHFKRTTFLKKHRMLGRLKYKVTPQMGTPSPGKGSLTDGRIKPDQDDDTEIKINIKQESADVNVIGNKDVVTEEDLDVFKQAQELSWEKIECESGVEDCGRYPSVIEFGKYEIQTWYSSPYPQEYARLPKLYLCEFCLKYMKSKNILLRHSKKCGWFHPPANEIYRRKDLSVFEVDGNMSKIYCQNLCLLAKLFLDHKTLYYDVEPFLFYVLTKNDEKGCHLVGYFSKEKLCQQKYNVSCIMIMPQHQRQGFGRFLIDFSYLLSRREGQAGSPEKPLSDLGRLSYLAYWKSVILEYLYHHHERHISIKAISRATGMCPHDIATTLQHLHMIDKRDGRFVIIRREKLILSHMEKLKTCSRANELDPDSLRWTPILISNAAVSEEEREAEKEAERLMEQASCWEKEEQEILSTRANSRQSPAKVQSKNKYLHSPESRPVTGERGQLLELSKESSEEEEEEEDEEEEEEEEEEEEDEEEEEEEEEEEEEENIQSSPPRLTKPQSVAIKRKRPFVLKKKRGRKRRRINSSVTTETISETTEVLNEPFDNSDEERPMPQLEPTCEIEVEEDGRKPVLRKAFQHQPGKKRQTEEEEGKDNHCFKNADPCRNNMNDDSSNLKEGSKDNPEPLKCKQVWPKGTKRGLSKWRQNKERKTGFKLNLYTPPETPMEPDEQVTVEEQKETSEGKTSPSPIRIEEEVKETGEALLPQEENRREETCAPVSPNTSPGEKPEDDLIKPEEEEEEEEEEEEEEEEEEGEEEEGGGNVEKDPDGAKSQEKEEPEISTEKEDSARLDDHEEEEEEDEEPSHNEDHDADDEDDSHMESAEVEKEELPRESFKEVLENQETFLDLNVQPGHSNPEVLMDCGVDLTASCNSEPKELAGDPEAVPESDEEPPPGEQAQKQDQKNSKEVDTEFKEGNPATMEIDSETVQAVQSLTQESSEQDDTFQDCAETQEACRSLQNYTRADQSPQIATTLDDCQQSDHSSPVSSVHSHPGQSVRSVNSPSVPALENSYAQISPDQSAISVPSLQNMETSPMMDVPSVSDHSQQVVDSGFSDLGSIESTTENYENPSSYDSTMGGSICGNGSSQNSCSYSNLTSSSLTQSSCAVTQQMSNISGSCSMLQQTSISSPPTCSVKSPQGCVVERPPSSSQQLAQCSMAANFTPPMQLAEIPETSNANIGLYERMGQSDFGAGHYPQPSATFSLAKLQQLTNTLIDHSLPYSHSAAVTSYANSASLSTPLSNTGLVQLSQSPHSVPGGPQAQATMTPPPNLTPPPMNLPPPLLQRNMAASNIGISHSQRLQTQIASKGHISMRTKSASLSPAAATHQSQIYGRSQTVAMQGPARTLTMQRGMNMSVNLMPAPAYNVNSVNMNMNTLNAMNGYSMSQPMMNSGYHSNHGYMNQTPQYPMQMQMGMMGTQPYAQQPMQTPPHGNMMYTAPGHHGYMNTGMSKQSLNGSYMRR

Target: T1, Zinc finger MIZ domain-containing protein 2 (ZMIZ2) (human (endogenous in LNCaP and 22RV1)) (UniProt Q8NF64)
T1 sequence: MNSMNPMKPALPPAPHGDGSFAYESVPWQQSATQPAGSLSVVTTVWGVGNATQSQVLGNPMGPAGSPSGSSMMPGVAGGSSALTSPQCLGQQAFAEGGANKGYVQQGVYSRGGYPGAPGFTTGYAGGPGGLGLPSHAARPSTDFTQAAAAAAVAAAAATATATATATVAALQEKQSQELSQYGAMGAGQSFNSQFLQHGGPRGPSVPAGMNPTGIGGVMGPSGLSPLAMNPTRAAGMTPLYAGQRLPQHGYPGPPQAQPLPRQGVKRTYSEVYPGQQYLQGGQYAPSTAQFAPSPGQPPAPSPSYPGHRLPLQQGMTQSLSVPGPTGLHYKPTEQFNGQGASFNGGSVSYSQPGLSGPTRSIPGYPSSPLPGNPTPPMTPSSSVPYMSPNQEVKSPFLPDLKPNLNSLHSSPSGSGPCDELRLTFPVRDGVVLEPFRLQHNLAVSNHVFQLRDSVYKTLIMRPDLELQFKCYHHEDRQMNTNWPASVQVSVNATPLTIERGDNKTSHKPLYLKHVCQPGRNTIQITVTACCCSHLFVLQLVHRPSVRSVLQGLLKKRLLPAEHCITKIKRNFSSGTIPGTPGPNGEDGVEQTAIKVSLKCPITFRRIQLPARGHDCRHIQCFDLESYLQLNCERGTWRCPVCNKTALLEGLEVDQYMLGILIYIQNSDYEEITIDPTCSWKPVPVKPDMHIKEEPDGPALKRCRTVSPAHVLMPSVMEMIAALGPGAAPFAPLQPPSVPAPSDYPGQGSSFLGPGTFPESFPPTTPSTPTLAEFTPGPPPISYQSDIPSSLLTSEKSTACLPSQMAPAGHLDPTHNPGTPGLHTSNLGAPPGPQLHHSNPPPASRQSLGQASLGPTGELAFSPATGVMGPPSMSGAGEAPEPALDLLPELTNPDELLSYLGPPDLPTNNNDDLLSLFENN
Experiment: affinity purification with mass spectrometry; IP-MS of ZMIZ2; cells and conditions not given

binding	Substance
binds	EP300 (from UniProt Q09472 1-2414) (enzyme)
binds	HAT1 (from UniProt O14929 1-419) (enzyme)
binds	KAT6B (from UniProt Q8WYB5 1-2073) (enzyme)

Results are given in words; binding and its absence hold for the method and conditions named. Binding seen in cells or lysates may run through a third protein. Here binding means that the protein was enriched with, or labelled near, the bait; the list need not be complete.
